These results are taken from the supplement of paper PMC7752906.

Structures can show the parent of a compound that is named as a salt. The list shows a part of the results. Repeats in this data set agree poorly, so a single value says little.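 Test system: Schistosoma mansoni schistosomula, roughly 40 per well, imaged in bright field over time and compared with wells given 0.1% DMSO. Distance read-out: the paper calls a drug a hit when its Mahalanobis distance is at least 2.47, three standard deviations above the DMSO control mean. Degeneracy is the share of worms classified opaque.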 Numbered stars: 1 amine (or outer) side, 2 acyl side, 3 side chain; on linkers, the order of the positions; unused ones are H or OH. Bridge positions count the residues as written; N and C are the ends. Square brackets hold non-standard residues; d marks the D form. Peptide text beside a SMILES is read from it. * marks the point of attachment. X1 = NC1=N[C@@H]([C@H](N[*:1])C(=O)[*:2])C[C@H](O)N1; ΔAla(Z-3-ureido) = NC(=O)N/C=C(\N)C(=O)O; β3hOrn = NCCC[C@H](N)CC(=O)*; Dap = NC[C@H](N)C(=O)O

The test system of the experiment is Schistosoma mansoni schistosomula. Put plainly: Mahalanobis distance of static-rate-frequency phenotype descriptors from DMSO controls (dimensionless); higher = stronger phenotypic change versus DMSO. Particulars: 10 µM; 72 h.
Regarding `Cc1ccsc1/C=C/C1=NCCCN1C` [Morantel Citrate], the Mahalanobis distance is active: 2.51.
Under `CCCCCCCCCCCCCCCCOP(=O)([O-])OCC[N+](C)(C)C` [Miltefosine] stands inactive: 2.19; under `CN(Cc1cnc2nc(N)nc(N)c2n1)c1ccc(C(=O)N[C@@H](CCC(=O)O)C(=O)O)cc1` [Methotrexate], inactive: 1.95.
For the molecule `N[C@@H](Cc1ccc(O)cc1)C(=O)O` [Tyrosine], the Mahalanobis distance is inactive: 1.37.
Consider `CCN(CC)CCNc1ccc(CO)c2sc3ccccc3c(=O)c12` [hycanthone], for which the Mahalanobis distance is inactive: 1.83.
As for `CSc1ccc2c(c1)N(CCC1CCCCN1C)c1ccccc1S2` (configuration not stated) [thioridazine], the Mahalanobis distance was active: 3.32.
As to `CC1=C(/C=C/C(C)=C/C=C/C(C)=C\C(=O)O)C(C)(C)CCC1` [Isotretinoin], the Mahalanobis distance was inactive: 1.97.
For the molecule `CC/C(=C(/CC)c1ccc(O)cc1)c1ccc(O)cc1` [Diethylstilbestrol], the Mahalanobis distance is inactive: 1.89.
For `CCCCC1(COC(=O)CCC(=O)O)C(=O)N(c2ccccc2)N(c2ccccc2)C1=O` [Suxibuzone], the Mahalanobis distance is inactive: 1.55.
Consider `COc1cc(NC(C)CCCN)c2ncccc2c1` (configuration not stated) [primaquine], for which the Mahalanobis distance is active: 3.25.
Consider `CC(=O)OCC(=O)[C@@]1(OC(C)=O)[C@@H](C)C[C@H]2[C@@H]3C[C@H](F)C4=CC(=O)C=C[C@]4(C)[C@@]3(F)[C@@H](O)C[C@@]21C` [Diflorasone Diacetate], for which the Mahalanobis distance is active: 3.16.
For `C[C@]1(Cn2ccnn2)[C@H](C(=O)O)N2C(=O)C[C@H]2S1(=O)=O` [Tazobactam], the Mahalanobis distance is active: 2.81.
Under `CCN(CC)CCOCCOC(=O)C(CC)(CC)c1ccccc1` [Oxelaidin Citrate] stands inactive: 2.
For `CC(CN(C)C)CN1c2ccccc2Sc2ccccc21` (configuration not stated) [Trimeprazine Tartrate], the Mahalanobis distance is inactive: 1.72.
`CC(=O)OCC(=O)[C@H]1CC[C@H]2[C@@H]3CCC4=CC(=O)CC[C@]4(C)[C@H]3CC[C@]12C` [Desoxycorticosterone Acetate]: the Mahalanobis distance was active: 2.57.
To `C=CCOC(Cn1ccnc1)c1ccc(Cl)cc1Cl` (configuration not stated) [Enilconazole] belongs inactive: 1.48; to `CN(C)CC/C=C1/c2ccccc2COc2ccc(CC(=O)O)cc21` [Olopatadine Hcl], inactive: 2.36.
For `COc1cc(/C=C/C(=O)N2CCCCCCC2)cc(OC)c1OC` [Cinoctramide], the Mahalanobis distance was inactive: 2.04.
For `c1ccc(CN(CC2=NCCN2)c2ccccc2)cc1` [Antazoline], the Mahalanobis distance is active: 3.06.
Under `CC(=O)N(CC(O)CN(C(C)=O)c1c(I)c(C(=O)NCC(O)CO)c(I)c(C(=O)NCC(O)CO)c1I)c1c(I)c(C(=O)NCC(O)CO)c(I)c(C(=O)NCC(O)CO)c1I` (configuration not stated) [Iodixanol] stands inactive: 1.53.
Under `NC(=O)NS(=O)(=O)c1ccc(N)cc1` [Sulfacarbamide] stands inactive: 1.91; under `C=CCSCC1Nc2cc(Cl)c(S(N)(=O)=O)cc2S(=O)(=O)N1` (configuration not stated) [Althiazide], inactive: 1.53; under `CC(C)(O)c1ccccc1CC[C@@H](SCC1(CC(=O)O)CC1)c1cccc(/C=C/c2ccc3ccc(Cl)cc3n2)c1` [montelukast], inactive: 1.59.
Under `CC(C)(O)c1ccccc1CC[C@@H](SCC1(CC(=O)O)CC1)c1cccc(/C=C/c2ccc3ccc(Cl)cc3n2)c1` [Montelukast Sodium] stands inactive: 2.39; under `CCN[C@@H]1C[C@H](N)[C@@H](O[C@H]2OC(CN)=CC[C@H]2N)[C@H](O)[C@H]1O[C@H]1OC[C@](C)(O)[C@H](NC)[C@H]1O` [Netilmicin Sulfate], inactive: 1.46.
For `CC(=O)Oc1cccc(C)c1` [Meta-cresyl Acetate], the Mahalanobis distance was inactive: 1.55.
To `CN(C)CC(c1ccc(O)cc1)C1(O)CCCCC1` (configuration not stated) [Desvenlafaxine Succinate] belongs inactive: 2.47; to `NC(=O)[C@@H]1CCCN1C(=O)[C@H](Cc1c[nH]cn1)NC(=O)[C@@H]1CCC(=O)N1` [Protirelin], active: 2.88; to `OCc1ccccc1O` [Salicyl Alcohol], inactive: 1.84.
On to `COc1c(N2CCNC(C)C2)c(F)cc2c(=O)c(C(=O)O)cn(C3CC3)c12` (configuration not stated) [Gatifloxacin], for which the Mahalanobis distance was inactive: 2.29.
As for `O=C(c1ccccc1)c1ccc2n1CCC2C(=O)O` (configuration not stated) [Ketorolac Tromethamine], the Mahalanobis distance was inactive: 1.23.
To `CCNC(=O)/C=C/c1cccc(Br)c1` [Cinromide] belongs active: 2.67; to `Nc1ccn([C@@H]2CS[C@H](CO)O2)c(=O)n1` [Lamivudine], inactive: 1.68.
Take `Cc1cc(N)c2ccccc2[n+]1CCCCCCCCCC[n+]1c(C)cc(N)c2ccccc21` [Dequalinium Chloride]: the Mahalanobis distance was inactive: 2.39.
As to `COc1ccccc1OCC(O)COC(N)=O` (configuration not stated) [Methocarbamol], the Mahalanobis distance is inactive: 1.74.
With `NCC[C@H](O)C(=O)N[C@@H]1C[C@H](N)[C@@H](O[C@H]2O[C@H](CN)[C@@H](O)[C@H](O)[C@H]2O)[C@H](O)[C@H]1O[C@H]1O[C@H](CO)[C@@H](O)[C@H](N)[C@H]1O` [Amikacin Sulfate], the Mahalanobis distance is inactive: 1.95.
In the case of `O=C(O)CSCC(=O)NC1CCSC1=O` (configuration not stated) [Erdosteine], the Mahalanobis distance was inactive: 1.39.
Consider `Clc1ccc(Nc2nnc(Cc3ccncc3)c3ccccc23)cc1` [Vatalanib Dihydrochloride], for which the Mahalanobis distance is active: 5.29.
In the case of `C[N+](C)(C)CCO.[Cl-]` [Choline Chloride], the Mahalanobis distance is inactive: 2.02.
With `CN1CCC(OC(c2ccccc2)c2ccccc2)CC1` [Diphenylpyraline Hydrochloride], the Mahalanobis distance is inactive: 2.27.
Turning to `O=C(Oc1cccc2cccnc12)c1ccccc1` [benzoxiquine], the Mahalanobis distance was inactive: 2.44.
For the molecule `CCOC(=O)[C@H](CCc1ccccc1)N[C@@H](C)C(=O)N1Cc2cc(OC)c(OC)cc2C[C@H]1C(=O)O` [Moexipril Hydrochloride], the Mahalanobis distance was inactive: 2.47.
`NCCC[C@H](N)CC(=O)N[C@H]1CNC(=O)[C@H]([C@H]2C[C@H](O)NC(N)=N2)NC(=O)/C(=C/NC(N)=O)NC(=O)[C@H](CO)NC(=O)[C@H](CO)NC1=O` [Viomycin Sulfate] (β3hOrn-[Dap]SS[ΔAla(Z-3-ureido)][X1]; lactam 1-C): the Mahalanobis distance is inactive: 1.8.
Under `NC(CO)C(=O)NNCc1ccc(O)c(O)c1O` (configuration not stated) [Benserazide] stands inactive: 2.01.
Regarding `C[C@H]1COc2c(N3CCN(C)CC3)c(F)cc3c(=O)c(C(=O)O)cn1c23` [Levofloxacin], the Mahalanobis distance is inactive: 2.16.
With `Nc1nc(O)c2ncn(CCC(CO)CO)c2n1` [Penciclovir], the Mahalanobis distance was inactive: 1.36.
To `Fc1ccc([C@@H]2CCNC[C@H]2COc2ccc3c(c2)OCO3)cc1` [Paroxetine] belongs inactive: 2.16; to `O=c1[nH]cnc2c1ncn2[C@H]1CC[C@@H](CO)O1` [Didanosine], inactive: 1.72; to `O=C(O)CCCC[C@@H]1SC[C@@H]2NC(=O)N[C@@H]21` [Biotin], inactive: 2.27.
In the case of `CN1CCN(c2cc3c(cc2F)c(=O)c(C(=O)O)cn3-c2ccc(F)cc2)CC1` [Difloxacin Hydrochloride], the Mahalanobis distance is inactive: 1.61.
In the case of `COC(=O)C1=C(C)NC(C)=C(C(=O)OC(C)C)C1c1cccc2nonc12` (configuration not stated) [Isradipine], the Mahalanobis distance was inactive: 2.16.
`CC(=O)SCC(Cc1ccccc1)C(=O)NCC(=O)OCc1ccccc1` (configuration not stated) [Racecadotril]: the Mahalanobis distance is inactive: 1.54.
With `OCCN1C[C@H](O)[C@@H](O)[C@H](O)[C@H]1CO` [Miglitol], the Mahalanobis distance is inactive: 1.88.
Under `CC(=O)OCC[N+](C)(C)C` [Acetylcholine] stands active: 2.63; under `CC(C)C(=O)Nc1ccc([N+](=O)[O-])c(C(F)(F)F)c1` [Flutamide], active: 6.72.
Consider `C[C@H]1O[C@@H](O[C@H]2CC[C@@]3(C)[C@H](CC[C@@H]4[C@@H]3C[C@@H](O)[C@]3(C)[C@@H](C5=CC(=O)OC5)CC[C@]43O)C2)C[C@H](O)[C@@H]1O[C@H]1C[C@H](O)[C@H](O[C@H]2C[C@H](O)[C@H](O[C@@H]3O[C@H](CO)[C@@H](O)[C@H](O)[C@H]3O)[C@@H](C)O2)[C@@H](C)O1` [Deslanoside], for which the Mahalanobis distance is inactive: 1.76.
As for `Cn1cnc([N+](=O)[O-])c1Sc1ncnc2[nH]cnc12` [Azathioprine], the Mahalanobis distance was inactive: 1.49.
To `CCN(CC)Cc1cc(Nc2ccnc3cc(Cl)ccc23)ccc1O` [Amodiaquine Dihydrochloride] belongs active: 3.15; to `CCC(=O)OCC(=O)[C@@]1(OC(=O)CC)[C@@H](C)C[C@H]2[C@@H]3CCC4=CC(=O)C=C[C@]4(C)[C@@]3(Cl)[C@@H](O)C[C@@]21C` [Beclomethasone Dipropionate], inactive: 1.59.
`CC(C)NCC(O)c1cc(O)cc(O)c1` (configuration not stated) [Metaproterenol]: the Mahalanobis distance is inactive: 1.7.
`CNCCCN1c2ccccc2CCc2ccccc21` [Desipramine]: the Mahalanobis distance was inactive: 2.46.
For the molecule `CC[n+]1c(-c2ccccc2)c2cc(N)ccc2c2ccc(N)cc21` [Homidium Bromide], the Mahalanobis distance is inactive: 1.96.
As to `O=C1OC(CN2CCOCC2)CN1/N=C/c1ccc([N+](=O)[O-])o1` (configuration not stated) [Furaltadone], the Mahalanobis distance was inactive: 1.91.
With `C[C@H]1[C@H](OC(=O)CCC(=O)O)O[C@@H]2O[C@@]3(C)CC[C@H]4[C@H](C)CC[C@@H]1[C@@]24OO3` [Artesunate], the Mahalanobis distance is inactive: 1.88.
Turning to `Cc1cccc(Nc2ccccc2C(=O)O)c1C` [Mefenamic Acid], the Mahalanobis distance is inactive: 1.74.
For the molecule `O=C(O)CCNC(=O)c1ccc(/N=N/c2ccc(O)c(C(=O)O)c2)cc1` [Balsalazide], the Mahalanobis distance is active: 2.56.
Regarding `CCCCc1nc(Cl)c(CO)n1Cc1ccc(-c2ccccc2-c2nnn[nH]2)cc1` [Losartan, Losartan Potassium], the Mahalanobis distance was inactive: 1.87.
